Publication PMC11955550
These are yes or no findings as the source states them, for the method shown. Some binding calls cover weakened binding; strength is not graded here.

Legend:
[1] = molecular target: ΔJ-DNAJB1 (truncated DNAJB1 lacking the J-domain and G/F linker) (human) (UniProt P25685); experiment: cryo-EM structure; single-particle helical reconstruction of αSyn fibrils decorated with WT DNAJB1 or ΔJ-DNAJB1 in HD buffer; mask on the decoration of one protofilament; low resolution (~14 Å, ~22 Å); both purified
wild-type DNAJB1 (human) = wild-type DNAJB1 (human) (UniProt P25685); experiment: as above

Substance	binding [1]	binding (wild-type DNAJB1 (human))
ΔJ-DNAJB1 (truncated DNAJB1 lacking the J-domain and G/F linker) (from UniProt P25685 161-340) (domain or fragment)	binds	–
wild-type DNAJB1 (from UniProt P25685 1-340) (other; other documents disagree on this pair)	–	binds
